In assay [1] the target is 2×Flag-c-Myc (UniProt P01106). Briefly: co-IP; HT29 cells cotransfected with 2×Flag- and 6×Myc-tagged plasmids, 48 h, RIPA lysate split and incubated with anti-Flag agarose and anti-Myc agarose at 4°C overnight; western blot with anti-Flag and anti-Myc. (In western blotting, separated proteins are transferred to a membrane and probed.)
Assay [2] deals with T1, 2×Flag-CARM1 (UniProt Q86X55).
T1 sequence: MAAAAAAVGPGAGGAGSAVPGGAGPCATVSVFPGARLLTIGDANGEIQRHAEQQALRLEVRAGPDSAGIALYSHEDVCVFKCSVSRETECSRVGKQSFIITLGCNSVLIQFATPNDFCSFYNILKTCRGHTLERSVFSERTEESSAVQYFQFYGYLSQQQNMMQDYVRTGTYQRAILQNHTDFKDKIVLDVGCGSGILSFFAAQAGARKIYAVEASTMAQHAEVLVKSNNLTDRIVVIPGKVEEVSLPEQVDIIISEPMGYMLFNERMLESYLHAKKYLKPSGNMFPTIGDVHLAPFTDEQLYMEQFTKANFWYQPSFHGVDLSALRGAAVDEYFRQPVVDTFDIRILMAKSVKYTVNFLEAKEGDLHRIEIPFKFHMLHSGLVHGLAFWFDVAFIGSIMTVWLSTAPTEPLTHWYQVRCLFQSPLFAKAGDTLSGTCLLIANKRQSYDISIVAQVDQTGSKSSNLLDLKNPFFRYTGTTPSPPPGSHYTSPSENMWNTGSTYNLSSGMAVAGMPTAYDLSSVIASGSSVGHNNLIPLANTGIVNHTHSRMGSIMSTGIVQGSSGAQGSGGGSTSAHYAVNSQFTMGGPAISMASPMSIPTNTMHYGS
The description is as above.

Sequences of proteins named here, by UniProt entry; tags and fusion partners are left off.
UniProt P01106: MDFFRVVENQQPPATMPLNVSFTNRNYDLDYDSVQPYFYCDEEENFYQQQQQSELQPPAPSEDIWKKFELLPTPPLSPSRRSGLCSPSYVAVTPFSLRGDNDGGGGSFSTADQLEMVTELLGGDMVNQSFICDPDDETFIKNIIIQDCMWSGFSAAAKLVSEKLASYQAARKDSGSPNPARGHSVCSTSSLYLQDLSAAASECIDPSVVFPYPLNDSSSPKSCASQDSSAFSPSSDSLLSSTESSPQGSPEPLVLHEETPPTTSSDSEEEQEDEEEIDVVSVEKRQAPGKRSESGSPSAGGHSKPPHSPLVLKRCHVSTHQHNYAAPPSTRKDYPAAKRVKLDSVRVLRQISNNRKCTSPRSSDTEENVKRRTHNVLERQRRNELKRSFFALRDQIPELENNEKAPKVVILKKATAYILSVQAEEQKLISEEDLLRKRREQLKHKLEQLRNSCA
UniProt Q09472: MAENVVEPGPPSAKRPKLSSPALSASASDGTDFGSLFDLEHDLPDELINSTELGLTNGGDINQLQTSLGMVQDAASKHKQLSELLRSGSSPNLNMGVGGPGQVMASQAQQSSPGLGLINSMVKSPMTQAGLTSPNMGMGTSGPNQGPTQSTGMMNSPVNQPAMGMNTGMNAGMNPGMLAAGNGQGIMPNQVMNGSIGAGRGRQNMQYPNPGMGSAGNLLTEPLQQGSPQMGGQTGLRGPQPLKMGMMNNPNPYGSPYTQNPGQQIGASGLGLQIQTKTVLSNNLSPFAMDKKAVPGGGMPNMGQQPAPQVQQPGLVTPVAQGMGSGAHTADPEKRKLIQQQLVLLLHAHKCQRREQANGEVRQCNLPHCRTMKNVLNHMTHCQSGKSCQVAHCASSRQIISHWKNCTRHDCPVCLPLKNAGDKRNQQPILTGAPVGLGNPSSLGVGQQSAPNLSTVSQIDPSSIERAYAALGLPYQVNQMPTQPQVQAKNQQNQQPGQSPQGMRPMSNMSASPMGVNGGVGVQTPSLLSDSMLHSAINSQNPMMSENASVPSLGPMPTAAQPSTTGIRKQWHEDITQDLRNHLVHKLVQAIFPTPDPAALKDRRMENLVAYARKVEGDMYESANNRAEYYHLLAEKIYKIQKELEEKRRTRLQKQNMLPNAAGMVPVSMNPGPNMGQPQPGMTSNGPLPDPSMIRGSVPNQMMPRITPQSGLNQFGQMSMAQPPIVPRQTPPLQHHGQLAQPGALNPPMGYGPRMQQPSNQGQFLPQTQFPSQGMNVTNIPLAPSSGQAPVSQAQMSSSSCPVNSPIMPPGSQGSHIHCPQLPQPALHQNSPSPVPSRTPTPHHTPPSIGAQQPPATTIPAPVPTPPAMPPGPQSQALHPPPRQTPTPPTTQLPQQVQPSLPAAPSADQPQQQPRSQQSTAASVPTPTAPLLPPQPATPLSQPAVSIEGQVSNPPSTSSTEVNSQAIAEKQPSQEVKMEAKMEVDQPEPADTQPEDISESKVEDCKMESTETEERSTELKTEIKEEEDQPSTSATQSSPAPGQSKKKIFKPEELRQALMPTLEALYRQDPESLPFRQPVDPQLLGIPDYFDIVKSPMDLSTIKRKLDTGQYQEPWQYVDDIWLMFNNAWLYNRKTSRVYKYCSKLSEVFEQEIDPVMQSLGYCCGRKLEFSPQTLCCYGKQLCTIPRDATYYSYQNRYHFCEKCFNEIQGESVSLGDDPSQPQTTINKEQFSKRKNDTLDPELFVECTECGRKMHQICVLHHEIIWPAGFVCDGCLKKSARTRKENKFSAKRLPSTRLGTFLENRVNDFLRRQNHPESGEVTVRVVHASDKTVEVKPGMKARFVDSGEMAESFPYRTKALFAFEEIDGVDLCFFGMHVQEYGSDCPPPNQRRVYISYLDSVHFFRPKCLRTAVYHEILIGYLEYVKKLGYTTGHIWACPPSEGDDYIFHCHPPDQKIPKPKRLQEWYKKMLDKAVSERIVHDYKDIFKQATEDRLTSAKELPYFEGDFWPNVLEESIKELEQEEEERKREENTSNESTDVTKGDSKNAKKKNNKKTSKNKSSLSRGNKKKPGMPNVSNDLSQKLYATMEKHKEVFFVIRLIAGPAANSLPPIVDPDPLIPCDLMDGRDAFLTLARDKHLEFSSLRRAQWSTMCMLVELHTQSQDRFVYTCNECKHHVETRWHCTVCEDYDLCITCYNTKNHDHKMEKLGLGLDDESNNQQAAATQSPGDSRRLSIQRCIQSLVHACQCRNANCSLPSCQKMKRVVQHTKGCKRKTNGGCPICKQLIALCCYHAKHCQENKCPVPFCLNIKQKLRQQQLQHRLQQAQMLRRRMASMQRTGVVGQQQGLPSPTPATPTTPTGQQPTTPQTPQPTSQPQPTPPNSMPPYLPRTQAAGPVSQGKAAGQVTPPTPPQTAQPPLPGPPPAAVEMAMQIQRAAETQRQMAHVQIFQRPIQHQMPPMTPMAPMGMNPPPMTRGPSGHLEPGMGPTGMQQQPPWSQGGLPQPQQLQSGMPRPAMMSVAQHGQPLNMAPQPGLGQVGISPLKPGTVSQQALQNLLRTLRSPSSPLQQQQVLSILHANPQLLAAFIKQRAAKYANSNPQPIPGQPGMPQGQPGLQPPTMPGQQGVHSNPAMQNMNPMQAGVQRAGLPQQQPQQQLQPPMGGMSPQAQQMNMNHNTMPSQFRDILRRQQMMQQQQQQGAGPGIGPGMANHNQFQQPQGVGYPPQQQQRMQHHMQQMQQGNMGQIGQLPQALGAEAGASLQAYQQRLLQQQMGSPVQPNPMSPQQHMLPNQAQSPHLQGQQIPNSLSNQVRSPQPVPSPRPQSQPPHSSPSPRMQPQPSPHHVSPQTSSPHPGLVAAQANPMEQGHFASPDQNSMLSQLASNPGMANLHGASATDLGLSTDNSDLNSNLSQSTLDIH

Assay [3] addresses c-Myc (human (endogenous in CAC patient tissue)) (UniProt P01106). Description: co-IP; endogenous proteins; cancerous tissue from a stage IV CAC patient immunoprecipitated with anti-c-Myc (anti-IgG as control); western blot for c-Myc, Max, p300 and CARM1.

No constants are given. Whether binding was seen depends on the method and setting. Binding seen in cells or lysates may run through a third protein. Some binding calls cover weakened binding; strength is not graded here. For part of these data: Where a sequence is shown, tags or fusion partners need not be part of it.

As to 6×Myc-p300 (from UniProt Q09472 1-2414), the binding result in assay [1] and in assay [2] was “binds” in each case.
As for p300 (from UniProt Q09472 1-2414), the binding entry in assay [3] was “binds”.

Source of the values: paper PMC7053342.
